Assay results from publication PMC7287101.
These are yes or no findings as the source states them, for the method shown. Binding seen in cells or lysates may run through a third protein. Some results given as binding are weak or reduced against the parent protein; the word gives no strength.

Amino acid sequences for entries named in this document (tags omitted). A change or cut given only in a name is not applied to a line headed by its entry. Chains listed by the source or under a name are the forms on record and can include a tag or linker.
UniProt Q9W420: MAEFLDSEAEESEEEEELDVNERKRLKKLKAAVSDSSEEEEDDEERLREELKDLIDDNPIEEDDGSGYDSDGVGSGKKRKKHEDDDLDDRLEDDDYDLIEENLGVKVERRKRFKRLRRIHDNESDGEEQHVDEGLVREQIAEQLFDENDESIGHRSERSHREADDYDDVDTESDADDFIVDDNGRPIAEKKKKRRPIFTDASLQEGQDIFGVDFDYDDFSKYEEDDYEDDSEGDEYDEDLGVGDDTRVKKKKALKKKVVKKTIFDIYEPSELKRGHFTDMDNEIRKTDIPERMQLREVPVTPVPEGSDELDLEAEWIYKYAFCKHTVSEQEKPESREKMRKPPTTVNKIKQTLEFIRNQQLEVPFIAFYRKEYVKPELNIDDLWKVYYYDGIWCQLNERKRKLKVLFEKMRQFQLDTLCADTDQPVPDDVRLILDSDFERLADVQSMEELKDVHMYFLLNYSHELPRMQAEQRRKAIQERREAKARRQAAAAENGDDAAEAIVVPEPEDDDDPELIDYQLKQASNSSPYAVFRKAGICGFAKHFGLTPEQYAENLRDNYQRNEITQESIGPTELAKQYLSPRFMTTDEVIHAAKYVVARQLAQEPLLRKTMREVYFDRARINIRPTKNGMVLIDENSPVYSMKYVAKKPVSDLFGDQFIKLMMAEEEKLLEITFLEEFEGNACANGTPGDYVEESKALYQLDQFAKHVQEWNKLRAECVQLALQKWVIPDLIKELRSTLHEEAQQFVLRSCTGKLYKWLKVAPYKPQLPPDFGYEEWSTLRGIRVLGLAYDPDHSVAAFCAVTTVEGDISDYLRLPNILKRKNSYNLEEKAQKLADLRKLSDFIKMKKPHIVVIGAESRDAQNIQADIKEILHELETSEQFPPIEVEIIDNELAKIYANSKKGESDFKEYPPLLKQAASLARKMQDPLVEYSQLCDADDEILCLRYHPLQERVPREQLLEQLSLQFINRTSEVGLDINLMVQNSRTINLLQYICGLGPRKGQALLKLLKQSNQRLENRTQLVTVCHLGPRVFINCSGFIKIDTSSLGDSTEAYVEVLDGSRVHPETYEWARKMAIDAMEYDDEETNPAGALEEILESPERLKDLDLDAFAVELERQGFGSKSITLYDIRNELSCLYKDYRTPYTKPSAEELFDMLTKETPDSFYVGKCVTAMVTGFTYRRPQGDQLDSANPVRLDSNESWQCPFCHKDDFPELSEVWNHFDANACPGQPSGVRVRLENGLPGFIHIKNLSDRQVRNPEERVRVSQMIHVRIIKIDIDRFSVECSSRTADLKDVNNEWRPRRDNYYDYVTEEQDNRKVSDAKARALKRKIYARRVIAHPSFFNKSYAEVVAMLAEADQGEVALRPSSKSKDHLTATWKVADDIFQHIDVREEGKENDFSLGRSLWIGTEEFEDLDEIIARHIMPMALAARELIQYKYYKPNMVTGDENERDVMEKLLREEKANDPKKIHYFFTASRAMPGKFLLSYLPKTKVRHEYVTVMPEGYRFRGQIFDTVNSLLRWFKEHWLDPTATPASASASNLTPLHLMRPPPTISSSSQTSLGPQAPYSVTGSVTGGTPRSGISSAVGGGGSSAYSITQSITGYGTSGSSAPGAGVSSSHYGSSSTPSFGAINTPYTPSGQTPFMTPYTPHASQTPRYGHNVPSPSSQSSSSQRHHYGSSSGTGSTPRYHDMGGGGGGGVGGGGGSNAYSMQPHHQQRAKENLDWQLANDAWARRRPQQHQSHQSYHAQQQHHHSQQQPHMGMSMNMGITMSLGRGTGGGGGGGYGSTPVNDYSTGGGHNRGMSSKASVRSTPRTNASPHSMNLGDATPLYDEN
UniProt Q9V6Q2: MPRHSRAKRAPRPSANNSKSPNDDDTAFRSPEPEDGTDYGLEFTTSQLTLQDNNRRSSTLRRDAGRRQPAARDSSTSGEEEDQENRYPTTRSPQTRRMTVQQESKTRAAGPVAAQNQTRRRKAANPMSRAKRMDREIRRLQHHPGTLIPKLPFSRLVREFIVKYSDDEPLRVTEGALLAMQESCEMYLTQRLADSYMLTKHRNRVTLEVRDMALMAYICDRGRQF
dCENP-A^FLAG (S20/75/77D) (Q9V6Q2, form named): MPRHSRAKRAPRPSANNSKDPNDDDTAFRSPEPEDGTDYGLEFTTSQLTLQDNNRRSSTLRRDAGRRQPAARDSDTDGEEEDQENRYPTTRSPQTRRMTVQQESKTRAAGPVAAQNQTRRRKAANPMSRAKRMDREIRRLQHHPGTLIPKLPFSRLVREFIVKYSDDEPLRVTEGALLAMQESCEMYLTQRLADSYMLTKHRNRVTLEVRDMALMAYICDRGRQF
dCENP-A^FLAG (S20/75/77A) (Q9V6Q2, form named): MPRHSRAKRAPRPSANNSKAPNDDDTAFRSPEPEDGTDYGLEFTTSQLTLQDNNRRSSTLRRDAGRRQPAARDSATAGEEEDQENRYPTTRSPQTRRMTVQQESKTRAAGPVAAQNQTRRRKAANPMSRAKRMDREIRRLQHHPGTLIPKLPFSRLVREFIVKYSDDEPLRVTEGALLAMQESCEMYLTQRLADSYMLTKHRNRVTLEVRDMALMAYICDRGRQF

Assays:
[1] = target: endogenous Spt6 (Drosophila (endogenous in S2 cells)) (UniProt Q9W420); experiment: co-IP; anti-Spt6 antibody (25C6) on Protein A-Sepharose; Benzonase-treated S2 nuclear extract; 4 °C overnight; washes with 150 mM NaCl; blots α FLAG, α Spt6, α H3
[2] = target: endogenous Spt6 (Drosophila (endogenous in S2 cells)) (UniProt Q9W420); experiment: co-IP; anti-Spt6 antibody (25C6) on Protein A-Sepharose; Benzonase-treated S2 nuclear extract; 4 °C overnight; high salt washes with 750 mM NaCl; blots α FLAG, α Spt6, α H3

| Substance | binding [1] | binding [2] |
| --- | --- | --- |
| dCENP-A^FLAG (S20/75/77D) (from UniProt Q9V6Q2 1-225) | binds weakly |  |
| dCENP-A^FLAG S77A (from UniProt Q9V6Q2 1-225) | binds |  |
| dCENP-A^FLAG S77D (from UniProt Q9V6Q2 1-225) | binds weakly |  |
| full length dCENP-A^FLAG (from UniProt Q9V6Q2 1-225) | binds | binds |
| dCENP-A^FLAG (S20/75/77A) (from UniProt Q9V6Q2 1-225) | binds | binds |
